Assay results from patent publication US6906046B2 (Celltech R & D Inc., priority 2000, dated 2005).
The name of at least one read-out is uncertain. Some ranges recur; such a range may be that of the whole group of compounds.

tested on: NFκB; experiment: NFκB luciferase reporter assay in TNF-α stimulated A549 cells (E-selectin promoter); assay type: cell-based; conditions: % inhibition or IC50 in μM, given as class symbols
Method: A549 cells were stably transfected with an E-selectin promoter containing three NFκB binding sites driving luciferase expression. For the assay, 5×10^4 cells were incubated in 96 well round bottom plates overnight in 100 μL of 10% FBS/RPMI medium at 37° C. in a 5% CO2 atmosphere. The following morning the medium was removed and 90 μL of a 1% DMSO solution of test compound solution was added and the plates incubated for 1 hour. 10 μL of TNF-α was added at its EC50 (normally 6 ng/mL FAC) to each well and the plate incubated for 5 hours. 100 μL of luciferase buffer was added, and after 10 minutes luminescence was read on a Wallac Victor 1420 Multilabel Counter. The data obtained from the Wallac Victor was converted into % inhibition data or IC50 measured in μM.

With CCCOC(=O)[C@H]1[C@H](C(=O)OCC[Si](C)(C)C)C2C/C(=N\OCc3cccc(F)c3)[C@H]1c1cc(O)ccc12 (racemic) [Example 72, 11-(3-Fluoro-benzyloxyimino)-4-hydroxy-tricyclo[6.2.2.0^2,7]dodeca-2(7),3,5-triene-9,10-dicarboxylic acid 10-propyl ester 9-(2-trimethylsilanyl-ethyl) ester] as the compound, how does the NFκB inh read?
Its NFκB inh is “* (refers to percent inhibition from 6% to 64%)”.

Which NFκB inh does the source give for CCCOC(=O)[C@@H]1C2/C(=N/N(C)C)CC(c3ccc(O)cc32)[C@H]1C(=O)OCCS(=O)(=O)c1ccc(C)cc1 (stereo partly drawn) [Example 22, 4-Hydroxy-10-(5-methyl-isoxazol-3-yl-methoxycarbonylamino)-11-oxo-tricyclo[.6.2.2.0^2,7]dodeca-2(7),3,5-triene-9-(2-trimethylsilanyl-ethyl) ester] here?
Its NFκB inh is “* (refers to percent inhibition from 6% to 64%)”.

How did the NFκB inh turn out when C[Si](C)(C)CCOC(=O)C1C2C(=O)CC(c3ccc(O)cc32)[C@H]1C(=O)OCC[Si](C)(C)C (stereo partly drawn) [Example 26, 4-Hydroxy-10-(indan-2-yloxycarbonylamino)-11-oxo-tricyclo[6.2.2.0^2,7]dodeca-2(7),3,5-triene-9-(2-trimethylsilanyl-ethyl) ester] was run?
The NFκB inh was “* (refers to percent inhibition from 6% to 64%)”.

Which NFκB inh does the source give for CCCOC(=O)[C@H]1[C@H](C(=O)OCC[Si](C)(C)C)C2C/C(=N\NCCO)[C@H]1c1cc(O)ccc12 [Example 56] here?
Its NFκB inh is “* (refers to percent inhibition from 6% to 64%)”.

With CCCOC(=O)[C@H]1[C@H](C(=O)OCC[Si](C)(C)C)C2C/C(=N\NS(=O)(=O)c3ccccc3)[C@H]1c1cc(O)ccc12 [Example 58] as the compound, how does the NFκB inh read?
Its NFκB inh is “* (refers to percent inhibition from 6% to 64%)”.

C=CCOC(=O)c1ccc(COc2ccc3c(c2)[C@@H]2C(=O)CC3[C@@H](C(=O)N(C)CC(=O)NCc3c(OC)cc(OC)cc3OC)[C@H]2C(=O)OCC[Si](C)(C)C)cc1 [Example 110] was tested. Which NFκB inh did it give?
The NFκB inh was “* (refers to percent inhibition from 6% to 64%)”.
